Laboratory results taken from patent US20120100173A1.
No constants are given. Whether binding was seen depends on the method and setting. Some entries that bind do so weakly or less than the wild type.

Sequences of proteins named here, by UniProt entry; tags and fusion partners are left off. Residues count along the entry.
UniProt P17879, residues 2-642: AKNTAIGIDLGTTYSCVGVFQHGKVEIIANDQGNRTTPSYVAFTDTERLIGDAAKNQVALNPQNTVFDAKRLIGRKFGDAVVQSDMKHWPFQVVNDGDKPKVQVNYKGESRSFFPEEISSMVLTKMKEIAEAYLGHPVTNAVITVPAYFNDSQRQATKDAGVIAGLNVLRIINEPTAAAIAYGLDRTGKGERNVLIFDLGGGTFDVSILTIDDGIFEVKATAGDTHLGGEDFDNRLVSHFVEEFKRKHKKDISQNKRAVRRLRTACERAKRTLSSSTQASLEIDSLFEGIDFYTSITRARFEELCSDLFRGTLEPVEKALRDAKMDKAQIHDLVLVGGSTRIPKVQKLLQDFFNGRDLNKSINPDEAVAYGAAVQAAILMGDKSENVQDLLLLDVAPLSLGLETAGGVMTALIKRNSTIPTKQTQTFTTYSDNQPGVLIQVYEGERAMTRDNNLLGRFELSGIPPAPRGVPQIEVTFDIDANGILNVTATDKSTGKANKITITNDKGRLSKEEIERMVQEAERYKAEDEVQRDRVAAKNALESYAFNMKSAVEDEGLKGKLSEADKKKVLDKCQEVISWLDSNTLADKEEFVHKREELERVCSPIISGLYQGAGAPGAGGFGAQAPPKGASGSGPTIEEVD

Target: HSP70 (mouse, endogenous, from organ tissue of tumor bearing mice or Meth A fibrosarcoma) (mouse) (UniProt P17879)
Assay: glutaraldehyde cross-linking of the HOP TPR1 eluate, SDS-PAGE gel shift and Western blot; same cross-linked band, direct partner not resolved

B1: HIP (mouse, endogenous) (protein, UniProt Q99L47 1-371, looked up)
chain: MDPRKVSELRAFVKMCRQDPSVLHTEEMRFLREWVESMGGKVPPATHKAKSEENTKEEKRDKTTEENIKTEELSSEESDLEIDNEGVIEPDTDAPQEMGDENAEITEEMMDEANEKKGAAIEALNDGELQKAIDLFTDAIKLNPRLAILYAKRASVFVKLQKPNAAIRDCDRAIEINPDSAQPYKWRGKAHRLLGHWEEAAHDLALACKLDYDEDASAMLREVQPRAQKIAEHRRKYERKREEREIKERIERVKKAREEHERAQREEEARRQSGSQYGSFPGGFPGGMPGNFPGGMPGMGGAMPGMAGMAGMPGLNEILSDPEVLAAMQDPEVMVAFQDVAQNPSNMSKYQSNPKVMNLISKLSAKFGGQS
binding: binds
